These are yes or no findings as the source states them, for the method shown. Binding seen in cells or lysates may run through a third protein. These calls come from enrichment with a bait or labelling near it, and not all partners need be listed.
Target: 3×FLAG-SPOP (UniProt O43791)
Experiment: affinity purification with mass spectrometry; immunoprecipitation of 3×FLAG-SPOP complexes from stable PC-3 cells before and after olaparib treatment (also after PIAS1 knockdown), mass spectrometry

Sequences of proteins named here, by UniProt entry; tags and fusion partners are left off.
UniProt O43791: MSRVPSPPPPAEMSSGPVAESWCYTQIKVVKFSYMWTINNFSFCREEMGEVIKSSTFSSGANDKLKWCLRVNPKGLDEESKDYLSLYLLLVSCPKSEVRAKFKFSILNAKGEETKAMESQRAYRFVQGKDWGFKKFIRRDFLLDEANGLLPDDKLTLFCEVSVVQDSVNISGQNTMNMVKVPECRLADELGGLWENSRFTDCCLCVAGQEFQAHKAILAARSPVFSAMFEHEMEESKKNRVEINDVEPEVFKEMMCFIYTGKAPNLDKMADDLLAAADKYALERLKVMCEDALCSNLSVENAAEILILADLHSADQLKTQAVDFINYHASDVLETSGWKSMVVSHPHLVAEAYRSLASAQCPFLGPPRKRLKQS
UniProt Q12888: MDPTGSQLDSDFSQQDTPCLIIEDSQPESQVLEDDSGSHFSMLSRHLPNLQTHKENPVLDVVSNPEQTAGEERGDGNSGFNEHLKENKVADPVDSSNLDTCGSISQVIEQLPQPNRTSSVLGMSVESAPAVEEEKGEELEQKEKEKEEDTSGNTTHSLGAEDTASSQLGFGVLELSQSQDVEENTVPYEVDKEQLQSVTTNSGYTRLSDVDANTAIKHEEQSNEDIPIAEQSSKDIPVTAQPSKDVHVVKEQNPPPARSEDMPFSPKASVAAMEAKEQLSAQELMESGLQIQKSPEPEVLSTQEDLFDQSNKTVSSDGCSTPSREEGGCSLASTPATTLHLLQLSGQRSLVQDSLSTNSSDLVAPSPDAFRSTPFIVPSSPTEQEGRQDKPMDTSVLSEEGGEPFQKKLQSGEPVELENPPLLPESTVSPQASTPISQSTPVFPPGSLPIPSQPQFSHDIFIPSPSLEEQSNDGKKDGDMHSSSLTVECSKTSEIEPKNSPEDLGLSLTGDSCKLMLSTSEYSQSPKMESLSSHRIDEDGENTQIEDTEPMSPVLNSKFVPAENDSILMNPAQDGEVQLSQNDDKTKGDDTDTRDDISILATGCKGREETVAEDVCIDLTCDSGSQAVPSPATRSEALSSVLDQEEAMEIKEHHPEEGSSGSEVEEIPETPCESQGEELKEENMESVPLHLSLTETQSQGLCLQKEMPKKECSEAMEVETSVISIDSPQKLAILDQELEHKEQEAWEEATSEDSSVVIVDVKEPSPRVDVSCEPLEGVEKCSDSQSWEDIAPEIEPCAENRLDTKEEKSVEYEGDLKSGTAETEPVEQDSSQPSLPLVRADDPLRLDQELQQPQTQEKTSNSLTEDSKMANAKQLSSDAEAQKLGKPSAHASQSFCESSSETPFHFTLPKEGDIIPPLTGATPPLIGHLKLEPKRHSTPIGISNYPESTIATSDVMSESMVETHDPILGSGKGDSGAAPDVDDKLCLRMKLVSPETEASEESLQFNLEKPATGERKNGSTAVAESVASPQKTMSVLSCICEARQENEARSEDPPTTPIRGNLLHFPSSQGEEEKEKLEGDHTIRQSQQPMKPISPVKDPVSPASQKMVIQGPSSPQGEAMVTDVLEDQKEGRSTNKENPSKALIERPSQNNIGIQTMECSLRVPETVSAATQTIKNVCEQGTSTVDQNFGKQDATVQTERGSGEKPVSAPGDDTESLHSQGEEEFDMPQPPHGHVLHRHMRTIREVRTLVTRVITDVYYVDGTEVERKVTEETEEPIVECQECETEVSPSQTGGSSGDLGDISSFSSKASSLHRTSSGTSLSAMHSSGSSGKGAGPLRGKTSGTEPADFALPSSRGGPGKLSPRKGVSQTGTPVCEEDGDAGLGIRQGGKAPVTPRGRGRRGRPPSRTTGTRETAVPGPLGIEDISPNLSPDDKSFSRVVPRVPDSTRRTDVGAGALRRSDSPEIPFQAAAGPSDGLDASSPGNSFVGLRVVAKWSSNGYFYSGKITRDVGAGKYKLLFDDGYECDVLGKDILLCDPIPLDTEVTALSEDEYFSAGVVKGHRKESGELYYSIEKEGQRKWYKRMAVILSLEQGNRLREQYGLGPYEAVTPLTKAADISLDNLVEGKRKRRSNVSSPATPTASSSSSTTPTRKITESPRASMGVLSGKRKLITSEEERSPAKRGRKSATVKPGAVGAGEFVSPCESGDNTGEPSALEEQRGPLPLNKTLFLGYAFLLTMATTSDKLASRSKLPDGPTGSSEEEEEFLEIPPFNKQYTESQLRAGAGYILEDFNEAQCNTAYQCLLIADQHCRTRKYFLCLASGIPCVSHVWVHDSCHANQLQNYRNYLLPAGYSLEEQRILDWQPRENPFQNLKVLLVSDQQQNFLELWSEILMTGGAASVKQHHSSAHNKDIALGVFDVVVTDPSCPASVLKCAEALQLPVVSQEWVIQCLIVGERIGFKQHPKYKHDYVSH
UniProt O75925: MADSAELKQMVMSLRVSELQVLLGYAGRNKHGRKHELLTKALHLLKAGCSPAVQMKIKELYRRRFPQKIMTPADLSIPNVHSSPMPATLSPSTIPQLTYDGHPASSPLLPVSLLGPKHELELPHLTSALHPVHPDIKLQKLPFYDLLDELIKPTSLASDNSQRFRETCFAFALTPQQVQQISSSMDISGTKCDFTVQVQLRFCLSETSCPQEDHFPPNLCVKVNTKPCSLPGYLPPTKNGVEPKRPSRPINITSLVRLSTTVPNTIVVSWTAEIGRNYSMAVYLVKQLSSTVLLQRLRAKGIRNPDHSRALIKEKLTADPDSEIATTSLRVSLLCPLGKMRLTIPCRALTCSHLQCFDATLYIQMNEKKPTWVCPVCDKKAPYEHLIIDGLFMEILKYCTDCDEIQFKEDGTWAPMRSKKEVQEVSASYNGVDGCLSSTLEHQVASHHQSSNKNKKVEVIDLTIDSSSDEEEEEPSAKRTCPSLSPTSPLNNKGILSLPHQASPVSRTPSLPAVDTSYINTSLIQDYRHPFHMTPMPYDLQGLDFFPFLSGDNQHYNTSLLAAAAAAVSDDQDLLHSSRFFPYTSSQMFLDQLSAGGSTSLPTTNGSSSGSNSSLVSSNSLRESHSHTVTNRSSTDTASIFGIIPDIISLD

binding	Substance
binds	p53-binding protein 1 (from UniProt Q12888 1-1972)
binds	PIAS1 (endogenous) (from UniProt O75925 1-651)
